Results published in patent US20150232856A1, “TELOMERASE INHIBITORS FOR USE IN THERAPY” (AGENCY FOR SCIENCE, TECHNOLOGY AND RESEARCH, priority 2012, published 2015).

The chains behind the UniProt entries cited, without tags or fusion partners. Where a name states a change or a piece, a line headed by the entry shows the natural chain unless it says otherwise.
UniProt O14746: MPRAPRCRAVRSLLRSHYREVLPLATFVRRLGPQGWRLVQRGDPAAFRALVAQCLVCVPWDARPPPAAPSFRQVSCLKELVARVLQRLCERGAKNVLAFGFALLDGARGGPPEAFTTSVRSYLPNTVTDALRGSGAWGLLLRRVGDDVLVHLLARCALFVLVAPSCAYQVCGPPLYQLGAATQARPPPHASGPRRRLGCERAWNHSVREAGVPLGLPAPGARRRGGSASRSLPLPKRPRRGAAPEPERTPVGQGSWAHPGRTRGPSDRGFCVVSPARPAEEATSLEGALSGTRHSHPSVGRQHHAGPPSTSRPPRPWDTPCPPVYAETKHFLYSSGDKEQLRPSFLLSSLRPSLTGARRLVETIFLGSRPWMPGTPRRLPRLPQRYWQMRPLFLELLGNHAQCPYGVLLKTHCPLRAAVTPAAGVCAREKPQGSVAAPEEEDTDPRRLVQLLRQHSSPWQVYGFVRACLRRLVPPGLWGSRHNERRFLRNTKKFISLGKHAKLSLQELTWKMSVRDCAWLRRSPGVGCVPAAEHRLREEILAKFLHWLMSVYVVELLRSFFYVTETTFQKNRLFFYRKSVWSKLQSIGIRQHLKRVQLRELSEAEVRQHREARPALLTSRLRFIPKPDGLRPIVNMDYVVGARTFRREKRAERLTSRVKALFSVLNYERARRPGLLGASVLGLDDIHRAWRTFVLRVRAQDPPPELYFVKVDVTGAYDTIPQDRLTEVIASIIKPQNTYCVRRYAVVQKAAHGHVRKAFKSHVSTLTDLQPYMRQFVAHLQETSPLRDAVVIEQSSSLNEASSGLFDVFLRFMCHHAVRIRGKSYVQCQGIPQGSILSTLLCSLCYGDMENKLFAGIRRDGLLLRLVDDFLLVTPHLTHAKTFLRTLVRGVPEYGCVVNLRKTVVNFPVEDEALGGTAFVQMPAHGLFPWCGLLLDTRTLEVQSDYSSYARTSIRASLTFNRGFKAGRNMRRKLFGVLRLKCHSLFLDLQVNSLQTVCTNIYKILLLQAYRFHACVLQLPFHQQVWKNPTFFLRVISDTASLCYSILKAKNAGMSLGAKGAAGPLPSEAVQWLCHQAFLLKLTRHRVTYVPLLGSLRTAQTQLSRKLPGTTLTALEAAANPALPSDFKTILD

Key:
[1] = test system: NF-kB p50/p65 (nuclear extract); experiment: EMSA; conditions: protein in an extract, label: radiolabel
[2] = target: hTERT (telomerase) (Homo sapiens) (UniProt O14746); experiment: EMSA; conditions: hTERT antibodies did not supershift; protein in an extract; label: radiolabel

ACTGGGAGGATTCCCAAGGGGTCAATTGGGAGA (double strand) [IL6A]
binding result ([1]; TNFalpha-induced, reduced by hTERT ablation, p50 and p65 antibodies supershift): binds

GCATGGGAATTTCCAACTCTGGGAATTCCAATCCTTGCTGGGAA (double strand) [TNFalphaA]
binding result ([1]; A2780 cells, TNFalpha 30 min): binds

TCAACAGAGGGGACTTTCCGAGAGGCC (double strand) [NFkB consensus probe]
binding result [2]: no binding
binding result ([1]; TNFalpha-induced, unaffected by hTERT levels, p50 and p65 antibodies supershift): binds

TGACTCAGGTTTGCCCTGAGGGGATGGGCC (double strand) [IL8A]
binding result ([1]; A2780 cells, TNFalpha 30 min): binds

At least one result comes from cells or an extract, where the contact may be indirect. For some assays here: No signal at the amounts used counts as a negative. For some assays here: For at least one entry, the source does not settle the construct or the ends of the probe.
